# Laboratory results: PubChem BioAssay AID1508597 (Cure First, 2020)
# Screen: 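Genes whose silencing sensitises or protects ovarian cancer cells against rucaparib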 (primary screen)
# System: human ovarian carcinoma lines grown from tumours: OCI-P5x (papillary serous) and OCI-C5x (clear cell)
# Reagent: siRNA pool against human genes, 1.25 pmol siRNA per well
# Duration: 72 h or 96 h, depending on the cell culture
# Treatment: rucaparib 20 µM (about IC30) or vehicle, present until read-out
# Rucaparib or vehicle: Rucaparib
# Cell line: OCI-P5x (serous)
# Detection: 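ATP luminescence measured at 72 or 96 h according to the culture, then normalised and expressed as percent viability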
# Scale: viability, normalised: higher = more viable cells remaining
# Rule for the call: 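a well counts as a hit if its normalised viability is under 80 percent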
# Calls: active = viability under 80%; inactive = viability 80% or more
# This is an unselected part of the about 2,100 reagents, under one of the conditions tested. 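Calls flag viability under 80% in either arm, not effects specific to rucaparib; the reference for percent is not stated.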 A number with no mark means an inactive call. Not given: the 100% reference.
gene,technical replicate,"viability, normalised (%)"
DMAP1,1,91.7
DMAP1,2,89.4
DMAP1,3,84
METTL8,1,50.6 (active)
METTL8,2,47.1 (active)
METTL8,3,51.8 (active)
APP,1,60.3 (active)
APP,2,67.1 (active)
APP,3,79 (active)
F7,1,42.3 (active)
F7,2,65.8 (active)
F7,3,68.9 (active)
MLLT6,1,60.6 (active)
MLLT6,2,61.5 (active)
MLLT6,3,56.7 (active)
DCLK2,1,80.5
DCLK2,2,89.4
DCLK2,3,83.9
DGKA,1,96.6
DGKA,2,89.2
DGKA,3,88.1

Next part, starting with the last 5 of the part before.
gene,technical replicate,"viability, normalised (%)"
DCLK2,2,89.4
DCLK2,3,83.9
DGKA,1,96.6
DGKA,2,89.2
DGKA,3,88.1
MAP3K14,1,63.1 (active)
MAP3K14,2,64.3 (active)
MAP3K14,3,49.8 (active)
AXL,1,91.6
AXL,2,117
AXL,3,68.9 (active)
SRSF1,1,82.6
SRSF1,2,88.4
SRSF1,3,83.6
BCR,1,111
BCR,2,121
BCR,3,114
DRD3,1,44.9 (active)
DRD3,2,42.8 (active)
DRD3,3,47.2 (active)
MSX1,1,63 (active)
MSX1,2,65 (active)
MSX1,3,65.2 (active)
TRPM6,1,103
TRPM6,2,117
TRPM6,3,89.1
DHX16,1,55.3 (active)
DHX16,2,42.7 (active)
DHX16,3,61.1 (active)
TRIM16,1,73.6 (active)
TRIM16,2,73.5 (active)
TRIM16,3,68 (active)
DHX38,1,72.3 (active)
DHX38,2,80.4
DHX38,3,74.2 (active)
HDAC3,1,59.6 (active)
HDAC3,2,76.6 (active)
HDAC3,3,49.8 (active)
PYGO1,1,27.7 (active)
PYGO1,2,31.4 (active)
PYGO1,3,39.3 (active)
